The test has as its target cynomolgus TfR-1 (transferrin receptor 1), purified recombinant (cynomolgus). The test is described as follows: kinetic ELISA on coated recombinant TfR-1.

These are yes or no findings as the source states them, for the method shown. Some entries that bind do so weakly or less than the wild type. Tags and fused reporters may be left off the sequences shown.

B1: VNAR-Fc control conjugate (TXB4 fused to the N-terminal end of the Fc domain) (Fc fusion, not shown: a dimerising Fc or GST)
chain: ARVDQTPQTITKETGESLTINCVLRDSNCALSSTYWYRKKSGSTNEENISKGGRYVETVNSGSKSFSLRINDLTVEDSGTYRCNVVQYPQYPNYFWCDVYGDGTAVTVNA
For B1, the binding entry is given as “binds”.

Source of the values: patent US20230000998A1.
